# The supplement of paper PMC12067093, “Discovery and optimisation of a covalent ligand for TRIM25 and its application to targeted protein ubiquitination” (Chemical Science, 2025)
# By UniProt entry, the sequences of proteins in these tests, tags left out. Where a name states a change or a piece, a line headed by the entry shows the natural chain unless it says otherwise.
# UniProt Q96CW1: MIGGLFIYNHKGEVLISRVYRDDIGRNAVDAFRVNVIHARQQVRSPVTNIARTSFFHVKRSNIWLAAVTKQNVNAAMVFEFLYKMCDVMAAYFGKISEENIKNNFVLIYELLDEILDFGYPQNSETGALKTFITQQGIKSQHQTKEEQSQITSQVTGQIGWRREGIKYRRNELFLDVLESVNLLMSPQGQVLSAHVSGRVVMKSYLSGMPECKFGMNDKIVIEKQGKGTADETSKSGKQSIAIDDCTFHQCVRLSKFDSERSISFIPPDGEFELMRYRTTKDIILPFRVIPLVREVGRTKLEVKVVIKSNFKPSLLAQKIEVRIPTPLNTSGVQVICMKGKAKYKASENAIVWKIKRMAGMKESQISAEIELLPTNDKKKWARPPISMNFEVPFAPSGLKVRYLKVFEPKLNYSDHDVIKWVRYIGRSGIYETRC
# UniProt P20073: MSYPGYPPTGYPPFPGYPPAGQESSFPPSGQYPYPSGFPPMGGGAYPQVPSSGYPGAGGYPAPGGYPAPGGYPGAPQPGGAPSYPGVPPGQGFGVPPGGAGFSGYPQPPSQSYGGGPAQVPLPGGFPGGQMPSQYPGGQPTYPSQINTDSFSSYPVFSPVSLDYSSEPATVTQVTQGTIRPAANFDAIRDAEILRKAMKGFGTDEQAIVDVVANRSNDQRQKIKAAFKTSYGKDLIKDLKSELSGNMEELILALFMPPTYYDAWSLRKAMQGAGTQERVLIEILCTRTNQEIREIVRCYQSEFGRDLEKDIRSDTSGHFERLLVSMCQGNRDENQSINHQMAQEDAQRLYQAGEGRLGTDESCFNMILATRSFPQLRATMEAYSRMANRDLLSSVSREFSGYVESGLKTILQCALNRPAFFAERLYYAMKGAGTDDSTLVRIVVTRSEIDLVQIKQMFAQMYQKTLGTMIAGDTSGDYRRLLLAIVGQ
# UniProt P27695, whole entry, looked up: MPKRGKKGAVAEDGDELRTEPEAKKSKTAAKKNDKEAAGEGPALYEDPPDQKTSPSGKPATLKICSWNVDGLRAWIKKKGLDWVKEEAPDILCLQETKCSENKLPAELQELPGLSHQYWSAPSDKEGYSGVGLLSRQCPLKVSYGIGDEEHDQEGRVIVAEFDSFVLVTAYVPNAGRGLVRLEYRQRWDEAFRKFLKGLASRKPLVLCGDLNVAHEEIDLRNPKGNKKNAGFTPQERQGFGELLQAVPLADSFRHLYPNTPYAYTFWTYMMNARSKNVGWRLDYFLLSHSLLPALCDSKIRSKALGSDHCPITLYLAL
# UniProt Q6NXT1: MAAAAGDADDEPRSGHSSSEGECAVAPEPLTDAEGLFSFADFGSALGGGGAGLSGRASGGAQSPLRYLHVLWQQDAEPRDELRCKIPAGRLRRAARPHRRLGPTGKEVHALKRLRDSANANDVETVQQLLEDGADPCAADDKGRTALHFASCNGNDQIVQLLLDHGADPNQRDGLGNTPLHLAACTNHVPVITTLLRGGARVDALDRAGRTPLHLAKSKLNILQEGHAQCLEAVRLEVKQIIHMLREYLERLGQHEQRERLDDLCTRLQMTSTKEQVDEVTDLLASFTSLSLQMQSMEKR
# UniProt Q6P6B7: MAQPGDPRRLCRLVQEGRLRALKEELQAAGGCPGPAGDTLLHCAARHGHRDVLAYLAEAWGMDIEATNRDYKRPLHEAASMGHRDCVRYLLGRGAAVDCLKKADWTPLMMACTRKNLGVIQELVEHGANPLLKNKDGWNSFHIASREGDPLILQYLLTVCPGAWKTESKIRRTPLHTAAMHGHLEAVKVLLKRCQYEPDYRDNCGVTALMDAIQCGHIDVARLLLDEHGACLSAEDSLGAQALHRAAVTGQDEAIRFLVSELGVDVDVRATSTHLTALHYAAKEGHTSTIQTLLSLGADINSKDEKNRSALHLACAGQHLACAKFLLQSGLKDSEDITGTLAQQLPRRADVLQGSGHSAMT
# UniProt O14617: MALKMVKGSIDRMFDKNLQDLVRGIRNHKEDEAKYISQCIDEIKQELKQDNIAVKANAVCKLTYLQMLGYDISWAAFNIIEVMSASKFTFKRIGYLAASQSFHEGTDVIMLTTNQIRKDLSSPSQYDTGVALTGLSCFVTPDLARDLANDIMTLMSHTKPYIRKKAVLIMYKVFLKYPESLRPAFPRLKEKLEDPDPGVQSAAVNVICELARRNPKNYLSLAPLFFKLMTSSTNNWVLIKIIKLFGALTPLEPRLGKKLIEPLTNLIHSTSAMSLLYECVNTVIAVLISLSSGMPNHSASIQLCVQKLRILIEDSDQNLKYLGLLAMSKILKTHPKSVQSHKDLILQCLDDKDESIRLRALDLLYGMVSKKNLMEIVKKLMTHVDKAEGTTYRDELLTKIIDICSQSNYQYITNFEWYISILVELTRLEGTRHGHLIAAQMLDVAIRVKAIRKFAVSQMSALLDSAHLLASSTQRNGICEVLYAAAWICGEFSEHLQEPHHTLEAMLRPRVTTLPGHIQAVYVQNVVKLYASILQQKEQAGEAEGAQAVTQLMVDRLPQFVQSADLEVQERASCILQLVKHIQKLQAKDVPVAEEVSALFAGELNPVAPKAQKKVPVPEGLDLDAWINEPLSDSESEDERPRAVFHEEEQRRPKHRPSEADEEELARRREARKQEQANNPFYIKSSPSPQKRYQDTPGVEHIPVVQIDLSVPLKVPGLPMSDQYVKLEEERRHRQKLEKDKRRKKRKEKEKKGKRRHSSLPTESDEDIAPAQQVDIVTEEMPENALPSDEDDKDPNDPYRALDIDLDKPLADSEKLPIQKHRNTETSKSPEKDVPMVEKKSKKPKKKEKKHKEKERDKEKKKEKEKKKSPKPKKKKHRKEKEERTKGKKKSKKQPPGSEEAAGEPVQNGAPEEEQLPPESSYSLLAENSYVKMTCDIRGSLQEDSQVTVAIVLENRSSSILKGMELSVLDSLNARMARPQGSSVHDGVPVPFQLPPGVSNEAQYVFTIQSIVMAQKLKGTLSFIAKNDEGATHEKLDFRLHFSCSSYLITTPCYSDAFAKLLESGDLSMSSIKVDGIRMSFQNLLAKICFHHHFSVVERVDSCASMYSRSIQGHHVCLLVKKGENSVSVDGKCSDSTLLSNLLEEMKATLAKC
# UniProt Q9H8Y5: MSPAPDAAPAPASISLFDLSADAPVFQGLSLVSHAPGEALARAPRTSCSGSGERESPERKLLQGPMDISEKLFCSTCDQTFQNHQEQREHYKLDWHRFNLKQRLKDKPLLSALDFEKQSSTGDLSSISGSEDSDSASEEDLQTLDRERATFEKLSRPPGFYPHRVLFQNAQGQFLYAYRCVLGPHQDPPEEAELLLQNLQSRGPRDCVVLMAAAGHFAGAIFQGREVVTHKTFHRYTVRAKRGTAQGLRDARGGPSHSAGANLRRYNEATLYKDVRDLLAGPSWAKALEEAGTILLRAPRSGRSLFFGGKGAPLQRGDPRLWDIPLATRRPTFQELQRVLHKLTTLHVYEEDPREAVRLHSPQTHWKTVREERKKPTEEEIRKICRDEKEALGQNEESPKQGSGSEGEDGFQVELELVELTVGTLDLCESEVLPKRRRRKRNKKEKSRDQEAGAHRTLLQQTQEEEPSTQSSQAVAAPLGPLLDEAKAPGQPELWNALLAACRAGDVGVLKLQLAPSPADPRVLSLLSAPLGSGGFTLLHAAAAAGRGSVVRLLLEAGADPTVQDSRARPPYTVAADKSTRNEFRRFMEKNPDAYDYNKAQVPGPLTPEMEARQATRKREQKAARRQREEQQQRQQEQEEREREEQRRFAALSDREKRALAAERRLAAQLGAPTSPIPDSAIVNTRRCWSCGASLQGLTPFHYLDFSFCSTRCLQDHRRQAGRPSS
# UniProt Q4KMQ2: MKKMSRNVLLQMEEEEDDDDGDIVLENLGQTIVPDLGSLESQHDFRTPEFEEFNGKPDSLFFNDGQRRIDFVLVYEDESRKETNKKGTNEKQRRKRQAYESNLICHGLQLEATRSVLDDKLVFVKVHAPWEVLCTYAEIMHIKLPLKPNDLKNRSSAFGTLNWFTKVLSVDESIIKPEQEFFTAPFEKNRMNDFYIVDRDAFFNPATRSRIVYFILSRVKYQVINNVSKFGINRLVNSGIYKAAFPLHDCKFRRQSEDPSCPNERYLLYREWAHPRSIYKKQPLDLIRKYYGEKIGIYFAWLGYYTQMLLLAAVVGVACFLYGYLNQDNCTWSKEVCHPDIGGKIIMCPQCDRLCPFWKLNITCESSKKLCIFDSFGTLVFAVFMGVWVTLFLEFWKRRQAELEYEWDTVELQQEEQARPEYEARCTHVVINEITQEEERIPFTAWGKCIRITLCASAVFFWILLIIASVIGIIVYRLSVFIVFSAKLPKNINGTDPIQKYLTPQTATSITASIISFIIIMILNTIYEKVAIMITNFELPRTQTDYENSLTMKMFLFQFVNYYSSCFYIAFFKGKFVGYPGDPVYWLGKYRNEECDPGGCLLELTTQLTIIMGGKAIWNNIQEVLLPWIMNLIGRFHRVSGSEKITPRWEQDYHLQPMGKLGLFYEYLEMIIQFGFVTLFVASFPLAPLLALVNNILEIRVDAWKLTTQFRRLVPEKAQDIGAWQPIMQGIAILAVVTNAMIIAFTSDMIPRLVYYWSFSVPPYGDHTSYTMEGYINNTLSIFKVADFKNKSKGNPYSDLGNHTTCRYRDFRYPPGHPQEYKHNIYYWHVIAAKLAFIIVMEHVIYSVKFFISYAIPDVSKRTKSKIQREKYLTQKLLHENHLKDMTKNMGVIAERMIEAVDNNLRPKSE
# UniProt O94973, whole entry, looked up: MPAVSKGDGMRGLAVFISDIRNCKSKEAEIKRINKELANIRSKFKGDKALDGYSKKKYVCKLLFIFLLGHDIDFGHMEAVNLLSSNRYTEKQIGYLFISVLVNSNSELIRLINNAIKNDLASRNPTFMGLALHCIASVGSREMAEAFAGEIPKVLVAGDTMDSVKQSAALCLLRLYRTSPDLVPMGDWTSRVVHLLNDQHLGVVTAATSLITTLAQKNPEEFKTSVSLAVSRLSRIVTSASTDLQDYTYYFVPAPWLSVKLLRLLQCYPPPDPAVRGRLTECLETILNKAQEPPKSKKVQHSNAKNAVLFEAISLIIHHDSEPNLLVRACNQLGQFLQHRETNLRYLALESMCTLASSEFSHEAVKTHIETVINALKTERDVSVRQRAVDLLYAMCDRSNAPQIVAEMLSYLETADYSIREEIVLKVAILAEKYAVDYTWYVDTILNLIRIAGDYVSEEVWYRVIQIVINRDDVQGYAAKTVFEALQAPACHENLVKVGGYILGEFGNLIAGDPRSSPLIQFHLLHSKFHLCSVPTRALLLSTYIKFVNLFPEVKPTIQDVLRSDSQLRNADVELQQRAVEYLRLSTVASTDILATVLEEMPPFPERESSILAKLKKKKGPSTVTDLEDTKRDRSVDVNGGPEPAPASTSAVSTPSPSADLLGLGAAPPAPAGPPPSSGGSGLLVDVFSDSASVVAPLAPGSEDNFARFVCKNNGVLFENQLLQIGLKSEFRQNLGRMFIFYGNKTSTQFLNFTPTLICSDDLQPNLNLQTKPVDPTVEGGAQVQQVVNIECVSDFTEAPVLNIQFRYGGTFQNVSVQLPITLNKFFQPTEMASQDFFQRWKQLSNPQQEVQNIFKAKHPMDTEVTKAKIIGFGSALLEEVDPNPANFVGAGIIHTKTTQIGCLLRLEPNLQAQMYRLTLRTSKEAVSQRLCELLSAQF
# UniProt P15144: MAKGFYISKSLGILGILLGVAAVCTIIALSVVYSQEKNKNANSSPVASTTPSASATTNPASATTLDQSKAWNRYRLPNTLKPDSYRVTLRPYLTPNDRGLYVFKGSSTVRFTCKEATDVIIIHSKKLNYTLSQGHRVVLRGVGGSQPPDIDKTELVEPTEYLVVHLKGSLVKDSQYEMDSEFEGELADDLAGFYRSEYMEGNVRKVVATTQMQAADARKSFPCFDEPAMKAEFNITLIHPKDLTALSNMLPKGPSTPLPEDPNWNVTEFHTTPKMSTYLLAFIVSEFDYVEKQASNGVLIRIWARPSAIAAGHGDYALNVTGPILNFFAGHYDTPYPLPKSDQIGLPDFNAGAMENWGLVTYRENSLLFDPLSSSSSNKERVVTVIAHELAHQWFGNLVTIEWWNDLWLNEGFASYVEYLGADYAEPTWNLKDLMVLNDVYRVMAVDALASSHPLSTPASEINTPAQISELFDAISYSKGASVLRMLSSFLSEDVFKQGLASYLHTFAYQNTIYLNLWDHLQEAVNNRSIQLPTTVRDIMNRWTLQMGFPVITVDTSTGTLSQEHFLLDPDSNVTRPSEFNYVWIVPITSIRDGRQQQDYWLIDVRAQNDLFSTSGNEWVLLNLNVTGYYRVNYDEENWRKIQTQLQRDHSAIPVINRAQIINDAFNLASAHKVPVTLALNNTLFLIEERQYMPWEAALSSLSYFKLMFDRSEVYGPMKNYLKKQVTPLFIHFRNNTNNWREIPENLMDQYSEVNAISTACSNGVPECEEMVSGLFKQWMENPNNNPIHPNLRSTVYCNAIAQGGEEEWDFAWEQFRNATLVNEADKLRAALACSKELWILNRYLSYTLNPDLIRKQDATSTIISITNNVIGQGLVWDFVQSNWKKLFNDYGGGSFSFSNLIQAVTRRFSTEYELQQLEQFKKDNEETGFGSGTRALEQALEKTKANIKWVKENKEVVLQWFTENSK
# Some of the results follow.
# Compound: Cc1cc(ccc1-c1ccccc1)C(=O)N1CCCN(CC1)C(=O)CCl [compound 10]
# Test: probe-labelled cysteine peptide fold change vs DMSO (competition) (log2 fold change); higher = less target engagement (more negative = stronger competition)
# Settings: THP-1, incubation time: 4 h
# 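Note: competitive profiling in live THP-1 cells: cysteine peptides tagged with an iodoacetamide desthiobiotin (IA-DTB) probe, intensity after compound treatment relative to DMSO-treated cells.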
Target,probe-labelled cysteine peptide fold change (10 µM),probe-labelled cysteine peptide fold change (50 µM)
AP2M1_Q96CW1_246+251_QSIAIDDCTFHQCVR (UniProt Q96CW1),0.119,-0.117
ANXA7_P20073_285_VLIEILCTR (UniProt P20073),0.189,0.1
APOBR_Q0VD83_257_ACESTR (UniProt Q0VD83),0.411,0.403
APEX1_P27695_65_ICSWNVDGLR (UniProt P27695),0.181,-0.0202
ANKRD54_Q6NXT1_265_LDDLCTR (UniProt Q6NXT1),-0.0526,-0.562
ANKRD16_Q6P6B7_43_EELQAAGGCPGPAGDTLLHCAAR (UniProt Q6P6B7),0.053,-0.0254
AP3D1_O14617_60_ANAVCK (UniProt O14617),0.214,0.233
AP2M1_Q96CW1_337_IPTPLNTSGVQVICMK (UniProt Q96CW1),-0.0259,-0.0798
ANXA1_P04083_263_CLTAIVK (UniProt P04083),0.079,-0.0354
APEX1_P27695_93_EEAPDILCLQETK (UniProt P27695),-0.436,-0.0795
ANKZF1_Q9H8Y5_713_CLQDHR (UniProt Q9H8Y5),0.0306,0.0292
ANKRD17_O75179_1158_DTPLSLACSGGR (UniProt O75179),0.0355,0.317
APOBEC3F_Q8IUX4_36_RNTVWLCYEVK (UniProt Q8IUX4),0.021,0.0976
ANKLE1_Q8NAG6_517_KQPHQACPK (UniProt Q8NAG6),-0.0363,-0.377
ANO6_Q4KMQ2_105_QAYESNLICHGLQLEATR (UniProt Q4KMQ2),-0.181,-0.421
APBB1IP_Q7Z5R6_220_THCDCNVDWCLYEIYPELQIER (UniProt Q7Z5R6),0.118,0.153
ANXA7_P20073_327_LLVSMCQGNR (UniProt P20073),0.05,0.208
AP2A2_O94973_353_YLALESMCTLASSEFSHEAVK (UniProt O94973),0.0402,0.0718
AP1G2_O75843_393_AMMQELQAFLESCPPDLR (UniProt O75843),0.116,0.369
ANKRD17_O75179_672_TTANNDHTVLSLACAGGHLAVVELLLAHGADPTHR (UniProt O75179),0.191,0.414
ANPEP_P15144_834_AALACSK (UniProt P15144),-0.154,0.377
ANKMY2_Q8IV38_390_LDVNSNCVNEEQPEAEVGISQK (UniProt Q8IV38),-0.281,-0.0242

# Quoted at random: 2 entries already listed, in no set order.
Target,probe-labelled cysteine peptide fold change (10 µM),probe-labelled cysteine peptide fold change (50 µM)
AP2A2_O94973_353_YLALESMCTLASSEFSHEAVK (UniProt O94973),0.0402,0.0718
ANKRD17_O75179_672_TTANNDHTVLSLACAGGHLAVVELLLAHGADPTHR (UniProt O75179),0.191,0.414
